These results are taken from EP4567040A1, “CRYSTAL FORM OF FUSED TRICYCLIC DERIVATIVE AND PREPARATION METHOD” (Jiangsu Hengrui Pharmaceuticals Co., Ltd., priority 2022, dated 2024).

Further values from the same series stand in other lists.

This data set in a line: Influencing factor stability study of crystal forms. Type of data set: physicochemical. As to the method:
Example 50. Influencing Factor Stability Study of Crystal Forms Free-state samples were spread out, left to stand in open flasks, and subjected to 30-day stability tests under light exposure (4500 Lux), high temperature (40 °C and 60 °C), and high humidity (RH 75% and RH 92.5%) conditions.

Where [1] appears, read: Light exposure (4500 Lux), 7 days, open flask.
Setting [2] is: Light exposure (4500 Lux), 14 days, open flask.
Setting [3] is: Light exposure (4500 Lux), 30 days, open flask.

`C[C@H]1COc2c(-c3nc(N[C@@H]4CCOC[C@H]4O)ncc3Cl)cc(F)c3nc(C(C)(C)O)n1c23` [Crystal form G, (3S,4R)-4-((5-chloro-4-((S)-8-fluoro-2-(2-hydroxypropan-2-yl)-3-methyl-3,4-dihydro-5-oxa-1,2a-diazaacenaphthylen-6-yl)pyrimidin-2-yl)amino)tetrahydro-2H-pyran-3-ol] came in with a Purity% (40 °C, 7 days, open flask) of 99.9%; a Purity% (40 °C, 14 days, open flask) of 99.9%; a Purity% (40 °C, 30 days, open flask) of 99.9%; a Purity% (60 °C, 7 days, open flask) of 99.9%; a Purity% (60 °C, 14 days, open flask) of 99.9%; a Purity% (60 °C, 30 days, open flask) of 99.9%. Also, the Purity% is, setting by setting: (75% RH, 7 days, open flask) 99.9%; (75% RH, 14 days, open flask) 99.9%; (75% RH, 30 days, open flask) 99.9%; (92.5% RH, 7 days, open flask) 99.9%; (92.5% RH, 14 days, open flask) 99.9%; (92.5% RH, 30 days, open flask) 99.9%. For the same molecule, the Purity% (Initial, 0 days) is 99.9%; the Purity% under setting [1] stood at 98.5%; the Purity% under setting [2] worked out at 98.1%; the Purity% under setting [3] was determined as 96.8%.

In the case of `C[C@H]1COc2c(-c3nc(N[C@@H]4CCOC[C@H]4O)ncc3Cl)cc(F)c3nc(C(C)(C)O)n1c23` [Free-state amorphous form, (3S,4R)-4-((5-chloro-4-((S)-8-fluoro-2-(2-hydroxypropan-2-yl)-3-methyl-3,4-dihydro-5-oxa-1,2a-diazaacenaphthylen-6-yl)pyrimidin-2-yl)amino)tetrahydro-2H-pyran-3-ol], the Purity% by setting is: (40 °C, 7 days, open flask) 99.0%; (40 °C, 14 days, open flask) 99.0%; (40 °C, 30 days, open flask) 98.9%; (60 °C, 7 days, open flask) 99.0%; (60 °C, 14 days, open flask) 99.0%; (60 °C, 30 days, open flask) 99.0%. Besides, the Purity% is, setting by setting: (75% RH, 7 days, open flask) 99.0%; (75% RH, 14 days, open flask) 99.0%; (75% RH, 30 days, open flask) 98.9%; (92.5% RH, 7 days, open flask) 99.0%; (92.5% RH, 14 days, open flask) 99.0%; (92.5% RH, 30 days, open flask) 98.9%. Also, the Purity% runs as follows: (Initial, 0 days) 99.0%; under setting [1], 98.3%; under setting [2], 97.8%; under setting [3], 97.4%.

Turning to `C[C@H]1COc2c(-c3nc(N[C@@H]4CCOC[C@H]4O)ncc3Cl)cc(F)c3nc(C(C)(C)O)n1c23` [Crystal form H, (3S,4R)-4-((5-chloro-4-((S)-8-fluoro-2-(2-hydroxypropan-2-yl)-3-methyl-3,4-dihydro-5-oxa-1,2a-diazaacenaphthylen-6-yl)pyrimidin-2-yl)amino)tetrahydro-2H-pyran-3-ol], the Purity% came out at 99.96% (40 °C, 7 days, open flask); 99.94% (40 °C, 14 days, open flask); 99.93% (40 °C, 30 days, open flask); 99.95% (60 °C, 7 days, open flask); 99.94% (60 °C, 14 days, open flask); 99.92% (60 °C, 30 days, open flask). Further, the Purity% is 99.96% (75% RH, 7 days, open flask); 99.95% (75% RH, 14 days, open flask); 99.95% (75% RH, 30 days, open flask); 99.95% (92.5% RH, 7 days, open flask); 99.95% (92.5% RH, 14 days, open flask); 99.94% (92.5% RH, 30 days, open flask). The Purity% runs as follows: (Initial, 0 days) 99.95%; under setting [1], 99.89%; under setting [2], 99.83%; under setting [3], 99.69%.

As to `C[C@H]1COc2c(-c3nc(N[C@@H]4CCOC[C@H]4O)ncc3Cl)cc(F)c3nc(C(C)(C)O)n1c23` [Crystal form F, (3S,4R)-4-((5-chloro-4-((S)-8-fluoro-2-(2-hydroxypropan-2-yl)-3-methyl-3,4-dihydro-5-oxa-1,2a-diazaacenaphthylen-6-yl)pyrimidin-2-yl)amino)tetrahydro-2H-pyran-3-ol], the Purity% was found to be 99.9% (40 °C, 7 days, open flask); 99.9% (40 °C, 14 days, open flask); 99.9% (40 °C, 30 days, open flask); 99.9% (60 °C, 7 days, open flask); 99.9% (60 °C, 14 days, open flask); 99.9% (60 °C, 30 days, open flask). Besides, the Purity% was 99.9% (75% RH, 7 days, open flask); 99.9% (75% RH, 14 days, open flask); 99.9% (75% RH, 30 days, open flask); 99.9% (92.5% RH, 7 days, open flask); 99.9% (92.5% RH, 14 days, open flask); 99.9% (92.5% RH, 30 days, open flask). The Purity% runs as follows: (Initial, 0 days) 99.9%; under setting [1], 99.6%; under setting [2], 99.4%; under setting [3], 98.1%.
